These results are taken from PMC6355650.

Amino acid sequences for entries named in this document (tags omitted).
UniProt Q00987: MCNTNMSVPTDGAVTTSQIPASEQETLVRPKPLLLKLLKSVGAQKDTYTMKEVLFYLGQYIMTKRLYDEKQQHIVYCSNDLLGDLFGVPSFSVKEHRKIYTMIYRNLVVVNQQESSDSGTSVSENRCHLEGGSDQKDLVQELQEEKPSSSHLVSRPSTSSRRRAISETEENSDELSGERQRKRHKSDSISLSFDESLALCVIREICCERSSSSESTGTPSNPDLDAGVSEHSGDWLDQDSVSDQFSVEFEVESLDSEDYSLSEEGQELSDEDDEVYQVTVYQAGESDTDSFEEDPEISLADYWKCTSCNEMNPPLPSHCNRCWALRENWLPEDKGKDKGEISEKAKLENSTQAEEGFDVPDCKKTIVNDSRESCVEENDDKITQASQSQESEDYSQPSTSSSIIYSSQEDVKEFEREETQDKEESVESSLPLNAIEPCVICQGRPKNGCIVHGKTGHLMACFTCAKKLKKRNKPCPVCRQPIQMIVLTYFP

For assay [1], the target named is HA-MDM2 (UniProt Q00987). Briefly: co-IP; HepG2 cells transfected with combinations of plasmids for wild type MDM2, IKKβ or their mutants; reciprocal immunoprecipitations.
Assay [2] deals with endogenous MDM2 (human (endogenous in HepG2)), Q00987. Briefly: co-IP; endogenous proteins in HepG2 lysate, cells untreated or treated with arsenite (20 μM); immunoprecipitation (anti-p53, anti-Ets-1 or control IgG for p53/Ets-1 and DAPK1). As to conditions: remark: other sources report otherwise.
For assay [3], the target named is HA-MDM2, Q00987. As to the kind of experiment: co-IP; HepG2 cells transfected with HA-MDM2 or control vector; lysate immunoprecipitated with anti-HA antibody, blotted for endogenous IKKβ and IKKα; also with p65 siRNA or control siRNA (Fig. 5g). The settings on record: remark: other sources report otherwise.

No constants are given. Whether binding was seen depends on the method and setting. Binding seen in cells or lysates may run through a third protein. Some entries that bind do so weakly or less than the wild type.

B1: IKKβΔ294–302 (protein, UniProt O14920)
chain: MSWSPSLTTQTCGAWEMKERLGTGGFGNVIRWHNQETGEQIAIKQCRQELSPRNRERWCLEIQIMRRLTHPNVVAARDVPEGMQNLAPNDLPLLAMEYCQGGDLRKYLNQFENCCGLREGAILTLLSDIASALRYLHENRIIHRDLKPENIVLQQGEQRLIHKIIDLGYAKELDQGSLCTSFVGTLQYLAPELLEQQKYTVTVDYWSFGTLAFECITGFRPFLPNWQPVQWHSKVRQKSEVDIVVSEDLNGTVKFSSSLPYPNNLNSVLAERLEKWLQLMLMWHPRQRGTDPTLDDILNLKLVHILNMVTGTIHTYPVTEDESLQSLKARIQQDTGIPEEDQELLQEAGLALIPDKPATQCISDGKLNEGHTLDMDLVFLFDNSKITYETQISPRPQPESVSCILQEPKRNLAFFQLRKVWGQVWHSIQTLKEDCNRLQQGQRAAMMNLLRNNSCLSKMKNSMASMSQQLKAKLDFFKTSIQIDLEKYSEQTEFGITSDKLLLAWREMEQAVELCGRENEVKLLVERMMALQTDIVDLQRSPMGRKQGGTLDDLEEQARELYRRLREKPRDQRTEGDSQEMVRLLLQAIQSFEKKVRVIYTQLSKTVVCKQKALELLPKVEEVVSLMNEDEKTVVRLQEKRQKELWNLLKIACSKVRGPVSGSPDSMNASRLSQPGQLMSQPSTASNSLPEPAKKSEELVAEAHNLCTLLENAIQDTVREQDQSFTALDWSWLQTEEEEHSCLEQAS
Take B1: the binding entry in assay [1] is “binds”.

B2: endogenous IKKβ, O14920 1-756 (protein)
chain: MSWSPSLTTQTCGAWEMKERLGTGGFGNVIRWHNQETGEQIAIKQCRQELSPRNRERWCLEIQIMRRLTHPNVVAARDVPEGMQNLAPNDLPLLAMEYCQGGDLRKYLNQFENCCGLREGAILTLLSDIASALRYLHENRIIHRDLKPENIVLQQGEQRLIHKIIDLGYAKELDQGSLCTSFVGTLQYLAPELLEQQKYTVTVDYWSFGTLAFECITGFRPFLPNWQPVQWHSKVRQKSEVDIVVSEDLNGTVKFSSSLPYPNNLNSVLAERLEKWLQLMLMWHPRQRGTDPTYGPNGCFKALDDILNLKLVHILNMVTGTIHTYPVTEDESLQSLKARIQQDTGIPEEDQELLQEAGLALIPDKPATQCISDGKLNEGHTLDMDLVFLFDNSKITYETQISPRPQPESVSCILQEPKRNLAFFQLRKVWGQVWHSIQTLKEDCNRLQQGQRAAMMNLLRNNSCLSKMKNSMASMSQQLKAKLDFFKTSIQIDLEKYSEQTEFGITSDKLLLAWREMEQAVELCGRENEVKLLVERMMALQTDIVDLQRSPMGRKQGGTLDDLEEQARELYRRLREKPRDQRTEGDSQEMVRLLLQAIQSFEKKVRVIYTQLSKTVVCKQKALELLPKVEEVVSLMNEDEKTVVRLQEKRQKELWNLLKIACSKVRGPVSGSPDSMNASRLSQPGQLMSQPSTASNSLPEPAKKSEELVAEAHNLCTLLENAIQDTVREQDQSFTALDWSWLQTEEEEHSCLEQAS
B2: the binding entry in assay [2] and in assay [3] was “binds” each time.

B3: IKKβΔ239–246 (protein, UniProt O14920)
chain: MSWSPSLTTQTCGAWEMKERLGTGGFGNVIRWHNQETGEQIAIKQCRQELSPRNRERWCLEIQIMRRLTHPNVVAARDVPEGMQNLAPNDLPLLAMEYCQGGDLRKYLNQFENCCGLREGAILTLLSDIASALRYLHENRIIHRDLKPENIVLQQGEQRLIHKIIDLGYAKELDQGSLCTSFVGTLQYLAPELLEQQKYTVTVDYWSFGTLAFECITGFRPFLPNWQPVQWHSKVRQKEDLNGTVKFSSSLPYPNNLNSVLAERLEKWLQLMLMWHPRQRGTDPTYGPNGCFKALDDILNLKLVHILNMVTGTIHTYPVTEDESLQSLKARIQQDTGIPEEDQELLQEAGLALIPDKPATQCISDGKLNEGHTLDMDLVFLFDNSKITYETQISPRPQPESVSCILQEPKRNLAFFQLRKVWGQVWHSIQTLKEDCNRLQQGQRAAMMNLLRNNSCLSKMKNSMASMSQQLKAKLDFFKTSIQIDLEKYSEQTEFGITSDKLLLAWREMEQAVELCGRENEVKLLVERMMALQTDIVDLQRSPMGRKQGGTLDDLEEQARELYRRLREKPRDQRTEGDSQEMVRLLLQAIQSFEKKVRVIYTQLSKTVVCKQKALELLPKVEEVVSLMNEDEKTVVRLQEKRQKELWNLLKIACSKVRGPVSGSPDSMNASRLSQPGQLMSQPSTASNSLPEPAKKSEELVAEAHNLCTLLENAIQDTVREQDQSFTALDWSWLQTEEEEHSCLEQAS
On to B3, for which the binding result in assay [1] was “binds”.
